From PubChem BioAssay AID330 (DTP/NCI, 2004)
The list is a part of this screen's results and no random one: it is rich in T/C values a quarter to a half above the control, in often repeated tests (any T/C) and in doses without a T/C. Further doses and runs are listed elsewhere. T/C gives the treated animals as a percentage of the vehicle group. Some entries give survivors of the animals treated and no T/C: the source files T/C as zero there, which appears to mark a toxic dose or a test without result, not a measured value. Some doses without a T/C left all or most animals alive at the check, yet need not have been tolerated: the source hardly ever lists a survival T/C far under the control, and the zero likely stands for such cases as well. Counts of survivors are from the toxicity check (mostly the fifth day) where no day follows; animals may have died later. Schedule codes are those of the source, taken here to give the interval after Q, in days (D) or hours (H), and the number of doses after X. Some entries were tested several times; the results are listed from low to high. Where survival is the endpoint, the PubChem record calls one and a half times the control and up active, and a quarter to a half above the control has no call in these data; cut-offs in other NCI protocols can differ. Some T/C values carry the count of animals alive at the toxicity check (mostly the fifth day); without a count, all were alive then.

Tested on: P388 leukemia ip, CD2F1 mice, survival T/C
Experiment: NCI In Vivo Anticancer Drug Screen. Data for tumor model P388 Leukemia (intraperitoneal) in CD2F1 (CDF1) mice
Conditions: T/C endpoint: median survival time, higher T/C = longer survival
[1] = dose: 25.0 mg/kg/injection, schedule: Q01DX009 (ip), vehicle: saline with Tween-80
[2] = dose: 200.0 mg/kg/injection, schedule: Q01DX009 (ip), vehicle: saline with Tween-80
[3] = dose: 200.0 mg/kg/injection, schedule: Q01DX009 (ip), vehicle: saline
[4] = dose: 200.0 mg/kg/injection, schedule: Q04DX002 (ip), vehicle: saline with Tween-80
[5] = dose: 400.0 mg/kg/injection, schedule: Q04DX002 (ip), vehicle: saline with Tween-80
[6] = dose: 200.0 mg/kg/injection, schedule: Q01DX005 (ip), vehicle: Klucel (hydroxypropylcellulose) (HPC)
[7] = dose: 50.0 mg/kg/injection, schedule: Q01DX009 (ip), vehicle: saline with Tween-80
[8] = dose: 200.0 mg/kg/injection, schedule: Q04DX003 (ip), vehicle: Klucel (hydroxypropylcellulose) (HPC)
[9] = dose: 1.0 mg/kg/injection, schedule: Q01DX005 (ip), vehicle: saline with Tween-80

With `OCCN1CCN(CC/C=C2\c3ccccc3Sc3ccc(Cl)cc32)CC1` the T/C (dose: 12.5 mg/kg/injection, schedule: Q01DX009 (ip), vehicle: saline) was 126 % of control, the T/C (dose: 12.5 mg/kg/injection, schedule: Q04DX003 (ip), vehicle: saline) was 134 % of control and the T/C (dose: 16.5 mg/kg/injection, schedule: Q01DX009 (ip), vehicle: saline with Tween-80) was 128 % of control. For the same compound, the T/C [1] was 135 % of control, the T/C (dose: 25.0 mg/kg/injection, schedule: Q01DX009 (ip), vehicle: saline) was 126 % of control and the T/C (dose: 25.0 mg/kg/injection, schedule: Q04DX003 (ip), vehicle: saline) was 128 % of control. For the same compound, the survivor count (dose: 37.5 mg/kg/injection, schedule: Q01DX009 (ip), vehicle: saline with Tween-80) was 6 of 6, the survivor count (dose: 56.25 mg/kg/injection, schedule: Q01DX009 (ip), vehicle: saline with Tween-80) was 1 of 6 and the survivor count (dose: 100.0 mg/kg/injection, schedule: Q04DX003 (ip), vehicle: saline) was 1 of 6.

In the case of `CN(C(=O)C1CC1)c1ccccc1`, the survivor count [2] is reported as 4 of 6 and the survivor count (dose: 400.0 mg/kg/injection, schedule: Q01DX009 (ip), vehicle: saline with Tween-80) is reported as 4 of 6.

With `Cn1cnc([N+](=O)[O-])c1C(=O)O` the survivor count [3] was 5 of 6.

For `Nc1cccnc1C1OCCO1`, the survivor count (dose: 200.0 mg/kg/injection, schedule: Q01DX009 (ip), vehicle: other) was 0 of 6.

With `C=CC[P+](CC[P+](CC=C)(c1ccccc1)c1ccccc1)(c1ccccc1)c1ccccc1` the survivor count (dose: 25.0 mg/kg/injection, schedule: Q04DX002 (ip), vehicle: saline) was 0 of 6, the survivor count (dose: 100.0 mg/kg/injection, schedule: Q04DX002 (ip), vehicle: saline with Tween-80) was 0 of 6 and the survivor count [4] was 0 of 6. The survivor count [5] was 0 of 6.

For `c1ccc(OP2(Oc3ccccc3)=NP(Oc3ccccc3)(Oc3ccccc3)=NP(Oc3ccccc3)(Oc3ccccc3)=NP(Oc3ccccc3)(Oc3ccccc3)=N2)cc1`, the survivor count [6] was 6 of 6.

For `COP(=O)(O)OC.[U]`, the survivor count (dose: 12.5 mg/kg/injection, schedule: Q01DX009 (ip), vehicle: saline with Tween-80) was 5 of 6 and 6 of 6, the survivor count [1] was 5 of 6 and the survivor count [7] was 3 of 6. The survivor count (dose: 100.0 mg/kg/injection, schedule: Q01DX009 (ip), vehicle: saline with Tween-80) was 1 of 6 and the survivor count [2] was 0 of 6.

In the case of `NC(=S)N/N=C\c1ncnc2ccccc12`, the T/C (dose: 8.0 mg/kg/injection, schedule: Q01DX009 (ip), vehicle: saline with Tween-80) is reported as 136 % of control, the T/C [1] is reported as 131 % of control and the survivor count [7] is reported as 1 of 6. The survivor count (dose: 100.0 mg/kg/injection, schedule: Q04DX003 (ip), vehicle: saline with Tween-80) was 5 of 6, the survivor count (dose: 200.0 mg/kg/injection, schedule: Q04DX003 (ip), vehicle: saline with Tween-80) was 0 of 6 and the survivor count (dose: 400.0 mg/kg/injection, schedule: Q04DX003 (ip), vehicle: saline with Tween-80) was 0 of 6.

For `Cc1ccc2c(c1)C1(C)OC(C=CC1=O)O2` (stereo not drawn), the T/C (dose: 50.0 mg/kg/injection, schedule: Q04DX003 (ip), vehicle: Klucel (hydroxypropylcellulose) (HPC)) was 129 % of control, the T/C (dose: 100.0 mg/kg/injection, schedule: Q04DX003 (ip), vehicle: Klucel (hydroxypropylcellulose) (HPC)) was 125 % of control and the T/C [8] was 128 % of control [5 of 6 alive]. For the same compound, the survivor count [8] was 0 of 6 and the survivor count (dose: 400.0 mg/kg/injection, schedule: Q04DX003 (ip), vehicle: Klucel (hydroxypropylcellulose) (HPC)) was 0 of 6.

In the case of `CCOC(=O)Nc1cc2c(c(N)n1)N=C(c1ccccc1)C(C)N2` (stereo not drawn), the T/C (dose: 0.5 mg/kg/injection, schedule: Q01DX005 (ip), vehicle: saline with Tween-80) is reported as 127 and 146 % of control, the T/C [9] is reported as 138 % of control and the survivor count [9] is reported as 5 of 6. The survivor count (dose: 1.5 mg/kg/injection, schedule: Q01DX005 (ip), vehicle: saline with Tween-80) was 2 of 6 and 6 of 6.

With `O=C(c1ccccc1)c1ccc[n+](Cc2c(Cl)cccc2Cl)c1` the survivor count (dose: 100.0 mg/kg/injection, schedule: Q01DX009 (ip), vehicle: saline) was 6 of 6 and the survivor count [3] was 0 of 6.

In the case of `C/C1=C\C(=O)OCC23CCC4(C)OC4C2OC2CC(OC(=O)/C=C/C=C/C(C(C)O)OCC1O)C3(C)C21CO1` (stereo not drawn), the T/C (dose: 2.5 mg/kg/injection, schedule: Q01DX005 (ip), vehicle: saline + alcohol) is reported as 128 and 129 % of control, the T/C (dose: 5.0 mg/kg/injection, schedule: Q01DX005 (ip), vehicle: saline + alcohol) is reported as 136 % of control and the T/C (dose: 10.0 mg/kg/injection, schedule: Q01DX005 (ip), vehicle: saline + alcohol) is reported as 137 % of control.

`CCOC(=O)CCCn1nc(-c2ccc(Cl)cc2)c(-c2ccc(Cl)cc2)c(C#N)c1=O` was tested, and the T/C [4] was 144 % of control and the survivor count [5] was 3 of 6.

`CCN(CC)CCOC12CC3CC(CC(C3)C1)C2` was tested, and the survivor count (dose: 100.0 mg/kg/injection, schedule: Q01DX005 (ip), vehicle: Klucel (hydroxypropylcellulose) (HPC)) was 0 of 6 and the survivor count [6] was 0 of 6.

In the case of `Cc1ccc(Cl)cc1NC(=O)N(C)CCOC(=O)Nc1cccc(Cl)c1`, the survivor count (dose: 240.0 mg/kg/injection, schedule: Q01DX005 (ip), vehicle: Klucel + Tween-80) is reported as 6 of 6.
